## Library screening results

Chains of the proteins cited; added tags and fusions are not shown.
UniProt E9BF75, entry or part of it: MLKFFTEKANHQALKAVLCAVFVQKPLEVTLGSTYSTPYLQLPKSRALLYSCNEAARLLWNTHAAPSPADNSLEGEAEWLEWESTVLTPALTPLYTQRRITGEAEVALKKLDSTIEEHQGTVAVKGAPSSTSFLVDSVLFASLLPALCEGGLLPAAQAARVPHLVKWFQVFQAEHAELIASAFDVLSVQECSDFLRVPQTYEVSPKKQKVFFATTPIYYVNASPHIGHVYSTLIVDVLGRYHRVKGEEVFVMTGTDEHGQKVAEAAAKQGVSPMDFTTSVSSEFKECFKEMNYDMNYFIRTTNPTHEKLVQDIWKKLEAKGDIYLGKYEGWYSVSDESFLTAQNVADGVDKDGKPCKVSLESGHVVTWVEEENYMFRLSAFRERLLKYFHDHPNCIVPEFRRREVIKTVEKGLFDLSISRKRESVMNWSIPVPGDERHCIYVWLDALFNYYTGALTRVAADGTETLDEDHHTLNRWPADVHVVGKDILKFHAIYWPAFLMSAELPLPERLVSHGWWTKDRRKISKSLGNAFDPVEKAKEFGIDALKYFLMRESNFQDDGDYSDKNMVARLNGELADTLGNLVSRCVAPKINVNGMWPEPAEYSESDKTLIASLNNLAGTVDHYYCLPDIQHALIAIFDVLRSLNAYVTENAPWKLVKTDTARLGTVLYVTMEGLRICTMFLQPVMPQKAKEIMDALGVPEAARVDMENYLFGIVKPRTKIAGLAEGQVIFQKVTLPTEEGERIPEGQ

Source: ChEMBL document CHEMBL3988442, “University of Dundee, Small-Polar-MMV Screening Library” (2021).

Results are percentages, as filed. How 0% and 100% were set is not recorded. Most values in the screen are low, and negative values occur. This is an unselected part of the compounds tested.

LdMetRS: 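Primary screen of methionyl-tRNA synthetase; the read-out is not stated. Target: Methionyl-tRNA synthetase (putative), Leishmania donovani (UniProt E9BF75). The test concentration is not given. Values are per cent inhibition. Of about 68,000 compounds tested this way, about 24 (0.035%) reached 50% or more in at least one test.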
Mtb heat-shock: 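Assay on Mycobacterium tuberculosis, filed only as a heat shock assay from Cornell; the read-out is not stated. The concentration is filed as 10 mM, unlikely as a test dose, so the dose is not known. Direction is inferred from retests: higher values go with stronger inhibition. Size under these conditions: about 69,000 compounds, about 930 of them at 50% or above in at least one test.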

Result for NC(=O)C1(Cc2ccccc2-c2cncnc2)CCCNC1 (stereo not shown) was LdMetRS: 15.12%; Mtb heat-shock: -8.372%. For CCC(C#N)NC(=O)c1ccc(Oc2cccnc2)cc1 (stereo not shown) the result was LdMetRS: 7.754%; Mtb heat-shock: 10.13%. For Cc1nc2c(c(NC(C)C)n1)CCN(Cc1cccnc1)CC2.O=C(O)C(F)(F)F.O=C(O)C(F)(F)F the result was Mtb heat-shock: -41.91%. Result for Cc1ccoc1CNCc1nnc2n1CC(C(F)(F)F)CC2 (stereo not shown) was LdMetRS: 14.08%; Mtb heat-shock: -8.769%. Result for Nc1nccnc1C(=O)N1CCN(CCOc2ccccc2)CC1 was LdMetRS: 2.486%; Mtb heat-shock: -232.5%. COC(=O)N1CCCC(NC(=O)NCc2csc(C)n2)C1 (stereo not shown) gave LdMetRS: 12.94%; Mtb heat-shock: -0.9593%.

CC(NS(=O)(=O)CC1(C#N)CCCC1)c1cccc(-n2cccn2)c1 (stereo not shown) read LdMetRS: 6.283%; Mtb heat-shock: -10.96%. CN1C(=O)C2(CC(=O)Nc3[nH]ncc32)c2cc(F)ccc21 (stereo not shown) gave LdMetRS: 5.248%; Mtb heat-shock: -15.91%. With CC(C)n1nc(CN(C)C)c2c1CN(C(=O)CC1CC1)CC2 the screen gave LdMetRS: 17.03%. Result for [H][C@@]12COC[C@]1(COCc1cccnc1)CN(C(=O)CCOC)C2 was Mtb heat-shock: 15%. COCCC(=O)N1C[C@@H](c2ccccc2F)[C@@]2(CCCC(=O)N2)C1 read LdMetRS: 10.64%; Mtb heat-shock: 2.17%. [H][C@]12CC[C@]([H])(CN(C(=O)Nc3cccc4ccccc34)C1)N(C)C2=O read Mtb heat-shock: -116.8%.

Result for CC(C)N(C)Cc1cc(=O)n2c(n1)CN(C(=O)c1cnccn1)CCC2 was LdMetRS: 2.732%; Mtb heat-shock: 10.49%. CCCc1nc(N2CCC(C)CC2)c2c(n1)c(C)nn2CC read LdMetRS: 14.74%; Mtb heat-shock: 22.63%. With Cc1nc(NC(=O)OC(C)(C)C)sc1C#N the screen gave LdMetRS: 18.51%; Mtb heat-shock: -26.39%. CCc1ncc(C(=O)N2CCN(c3cnn(C)c(=O)c3)CC2)cn1 gave LdMetRS: 17.58%; Mtb heat-shock: -3.615%. With CC(=O)N1CC2(CCN(C(=O)N(C)C)CC2)c2cc(C)ccc21 the screen gave LdMetRS: 5.109%; Mtb heat-shock: 3.414%. O=C(NC1CCC1)C1CCC2(CN(C(=O)c3ccco3)C2)O1 (stereo not shown) read LdMetRS: 15.22%; Mtb heat-shock: -5.844%.

With CC(C)c1nc(C2CCCN2c2cnc3cc(F)c(F)cc3n2)no1 (stereo not shown) the screen gave LdMetRS: 16.76%; Mtb heat-shock: 10.94%. Result for Cc1cc(C(=O)N2C[C@@H]3COC[C@]3(CN(C)C)C2)c(C)o1 was LdMetRS: -33.33%. With Cc1nccn1C1CCCN(C(=O)c2ccc(-n3cccn3)nc2)C1 (stereo not shown) the screen gave LdMetRS: 18.72%; Mtb heat-shock: -8.592%. Cc1cc(SC(C)(C)C)ccc1NCC(=O)NC(N)=O gave LdMetRS: 11.5%; Mtb heat-shock: 9.126%. Cc1noc(C)c1CN1CC[C@H]2OCC[C@@H](C(=O)N3CCCO3)[C@@H]2C1 read LdMetRS: 14.64%. With O=C(O)C(F)(F)F.[H][C@]12CCN(C(=O)C3CCOC3)[C@@]1([H])CCC(=O)N2Cc1ccncc1 (stereo partly shown) the screen gave Mtb heat-shock: -18.83%.

With CCN(CC)S(=O)(=O)N1CCCC1c1cccc(Nc2ncc(C)s2)n1 (stereo not shown) the screen gave LdMetRS: 11.61%; Mtb heat-shock: 70.89%. For CCn1cc2c(n1)C(COC)CN(C(=O)c1ccccn1)C2 (stereo not shown) the result was LdMetRS: 7.19%; Mtb heat-shock: -31.72%. With CCOC(=O)N1CCC(C(=O)c2cc(F)ccc2F)CC1 the screen gave LdMetRS: 8.163%; Mtb heat-shock: 3.224%. For CC(C)NC(=O)CC(C)NCc1cc(Cl)ccc1F (stereo not shown) the result was LdMetRS: 8.462%; Mtb heat-shock: 7.86%. For CN1C[C@H](NC(=O)c2cscn2)[C@@H]2OCCC[C@@H]21 the result was LdMetRS: 16.02%. CC(C)NC(=O)N1CC[C@@H](N(C)C)[C@@H]1Cc1ccncc1.O=C(O)C(F)(F)F.O=C(O)C(F)(F)F read Mtb heat-shock: -13.09%.

For Cc1nn(C)cc1CN1CCc2nc(-c3cccnc3)nc(O)c2C1 the result was LdMetRS: 4.167%; Mtb heat-shock: -9.539%. For CN(C)C(=O)CCC[S+]([O-])Cc1ccc(F)c(F)c1 (stereo not shown) the result was LdMetRS: 11.17%; Mtb heat-shock: -7.54%. Cc1ccc(NC(=O)NCC2(N3CCOCC3)CCSC2)c(C)c1 (stereo not shown) gave LdMetRS: 10.87%; Mtb heat-shock: -20.48%. Cc1csc(CNC(=O)N(C)Cc2ccc([S+](C)[O-])cc2)n1 (stereo not shown) gave LdMetRS: 7.609%; Mtb heat-shock: -9.957%. For COCCNC(=O)c1nc(-c2cn(C)cn2)n2ccccc12 the result was LdMetRS: 19.61%; Mtb heat-shock: -10.65%. With C[C@@H]1CN(C(=O)C2(Cn3cccn3)CC2)C[C@@]1(O)C1CCC1 the screen gave LdMetRS: 24.76%; Mtb heat-shock: 7.413%.

Result for O=C(c1cccnc1)N1CCc2c(COCC3CC3)cncc2C1 was LdMetRS: 18.1%; Mtb heat-shock: 2.921%. Result for COCCN1C(=O)C2(CCC(C(=O)Nc3ccc(C)cc3)CC2)N=C1C (stereo not shown) was LdMetRS: 7.317%; Mtb heat-shock: -2.661%. COc1cc(C(=O)NC(CC(=O)O)c2cccs2)cc(OC)c1C (stereo not shown) read LdMetRS: 22.64%; Mtb heat-shock: -1.187%. For O=C(C1CCC1)N1CCc2onc(Cn3cccn3)c2C1 the result was LdMetRS: 0.6536%; Mtb heat-shock: -19.58%. Result for Cc1nc(CN2C(=O)COC3(CCN(C)CC3)C2C)cs1 (stereo not shown) was LdMetRS: 19.02%. Result for COc1ccccc1CCNC(=O)C1CCC(Cn2cnnn2)CC1 (stereo not shown) was LdMetRS: 17.27%; Mtb heat-shock: -2.369%.

With [H][C@@]12CCN(Cc3ccncc3)C[C@]1([H])O[C@H](C(=O)N(C)C)C2 the screen gave Mtb heat-shock: -2.332%. For Cn1nccc1-c1cnc2n1CCNC21CCN(C(=O)C2(C)CC2)CC1 the result was LdMetRS: 1.173%; Mtb heat-shock: 11.95%.

Some entries from above, unchanged:

{"smiles": "CN1C(=O)C2(CC(=O)Nc3[nH]ncc32)c2cc(F)ccc21", "stereo": "stereo not shown", "LdMetRS": 5.248, "Mtb heat-shock": -15.91}
{"smiles": "COCCNC(=O)c1nc(-c2cn(C)cn2)n2ccccc12", "LdMetRS": 19.61, "Mtb heat-shock": -10.65}
{"smiles": "CCCc1nc(N2CCC(C)CC2)c2c(n1)c(C)nn2CC", "LdMetRS": 14.74, "Mtb heat-shock": 22.63}
{"smiles": "O=C(NC1CCC1)C1CCC2(CN(C(=O)c3ccco3)C2)O1", "stereo": "stereo not shown", "LdMetRS": 15.22, "Mtb heat-shock": -5.844}